Measurements taken from US8637038B2, “Methods for inhibiting allograft rejection” (Rigel Pharmaceuticals, Inc., priority 2011, dated 2014).
Some of these results come from one statement about several compounds together.

Test system: JAK1 and JAK3 kinases over JAK2 and Tyk2 kinases
Assay: JAK selectivity across panel of JAK-dependent cell-based assays
Parameters: species or system human

| Compound | selectivity for JAK1 and JAK3 kinases over JAK2 and Tyk2 kinases in cells |
| --- | --- |
| COc1cc(Nc2ncc(C)c(Nc3ccc4oc(=O)[nH]c4c3)n2)cc(C)c1C [Compound III, 5-(2-(3-methoxy-4,5-dimethylphenylamino)-5-methylpyrimidin-4-ylamino)benzol[d]oxazol-2-(3H)-one] | ≥ 20 fold |
| COc1cc(Nc2ncc(C)c(Nc3ccc4oc(=O)[nH]c4c3)n2)cc(C)c1F [Compound I, 5-(2-(4-fluoro-3-methoxy-5-methylphenylamino)-5-methylpyrimidin-4-ylamino)benzo[d]oxazol-2(3H)-one] | ≥ 20 fold |
